Source: the supplement of paper PMC12067093, “Discovery and optimisation of a covalent ligand for TRIM25 and its application to targeted protein ubiquitination” (Chemical Science, 2025)
The list shows a part of the results.

Chains of the proteins cited; added tags and fusions are not shown. Lines headed by an entry give the natural chain unless they say otherwise; changes in a name come on top.
UniProt O15027: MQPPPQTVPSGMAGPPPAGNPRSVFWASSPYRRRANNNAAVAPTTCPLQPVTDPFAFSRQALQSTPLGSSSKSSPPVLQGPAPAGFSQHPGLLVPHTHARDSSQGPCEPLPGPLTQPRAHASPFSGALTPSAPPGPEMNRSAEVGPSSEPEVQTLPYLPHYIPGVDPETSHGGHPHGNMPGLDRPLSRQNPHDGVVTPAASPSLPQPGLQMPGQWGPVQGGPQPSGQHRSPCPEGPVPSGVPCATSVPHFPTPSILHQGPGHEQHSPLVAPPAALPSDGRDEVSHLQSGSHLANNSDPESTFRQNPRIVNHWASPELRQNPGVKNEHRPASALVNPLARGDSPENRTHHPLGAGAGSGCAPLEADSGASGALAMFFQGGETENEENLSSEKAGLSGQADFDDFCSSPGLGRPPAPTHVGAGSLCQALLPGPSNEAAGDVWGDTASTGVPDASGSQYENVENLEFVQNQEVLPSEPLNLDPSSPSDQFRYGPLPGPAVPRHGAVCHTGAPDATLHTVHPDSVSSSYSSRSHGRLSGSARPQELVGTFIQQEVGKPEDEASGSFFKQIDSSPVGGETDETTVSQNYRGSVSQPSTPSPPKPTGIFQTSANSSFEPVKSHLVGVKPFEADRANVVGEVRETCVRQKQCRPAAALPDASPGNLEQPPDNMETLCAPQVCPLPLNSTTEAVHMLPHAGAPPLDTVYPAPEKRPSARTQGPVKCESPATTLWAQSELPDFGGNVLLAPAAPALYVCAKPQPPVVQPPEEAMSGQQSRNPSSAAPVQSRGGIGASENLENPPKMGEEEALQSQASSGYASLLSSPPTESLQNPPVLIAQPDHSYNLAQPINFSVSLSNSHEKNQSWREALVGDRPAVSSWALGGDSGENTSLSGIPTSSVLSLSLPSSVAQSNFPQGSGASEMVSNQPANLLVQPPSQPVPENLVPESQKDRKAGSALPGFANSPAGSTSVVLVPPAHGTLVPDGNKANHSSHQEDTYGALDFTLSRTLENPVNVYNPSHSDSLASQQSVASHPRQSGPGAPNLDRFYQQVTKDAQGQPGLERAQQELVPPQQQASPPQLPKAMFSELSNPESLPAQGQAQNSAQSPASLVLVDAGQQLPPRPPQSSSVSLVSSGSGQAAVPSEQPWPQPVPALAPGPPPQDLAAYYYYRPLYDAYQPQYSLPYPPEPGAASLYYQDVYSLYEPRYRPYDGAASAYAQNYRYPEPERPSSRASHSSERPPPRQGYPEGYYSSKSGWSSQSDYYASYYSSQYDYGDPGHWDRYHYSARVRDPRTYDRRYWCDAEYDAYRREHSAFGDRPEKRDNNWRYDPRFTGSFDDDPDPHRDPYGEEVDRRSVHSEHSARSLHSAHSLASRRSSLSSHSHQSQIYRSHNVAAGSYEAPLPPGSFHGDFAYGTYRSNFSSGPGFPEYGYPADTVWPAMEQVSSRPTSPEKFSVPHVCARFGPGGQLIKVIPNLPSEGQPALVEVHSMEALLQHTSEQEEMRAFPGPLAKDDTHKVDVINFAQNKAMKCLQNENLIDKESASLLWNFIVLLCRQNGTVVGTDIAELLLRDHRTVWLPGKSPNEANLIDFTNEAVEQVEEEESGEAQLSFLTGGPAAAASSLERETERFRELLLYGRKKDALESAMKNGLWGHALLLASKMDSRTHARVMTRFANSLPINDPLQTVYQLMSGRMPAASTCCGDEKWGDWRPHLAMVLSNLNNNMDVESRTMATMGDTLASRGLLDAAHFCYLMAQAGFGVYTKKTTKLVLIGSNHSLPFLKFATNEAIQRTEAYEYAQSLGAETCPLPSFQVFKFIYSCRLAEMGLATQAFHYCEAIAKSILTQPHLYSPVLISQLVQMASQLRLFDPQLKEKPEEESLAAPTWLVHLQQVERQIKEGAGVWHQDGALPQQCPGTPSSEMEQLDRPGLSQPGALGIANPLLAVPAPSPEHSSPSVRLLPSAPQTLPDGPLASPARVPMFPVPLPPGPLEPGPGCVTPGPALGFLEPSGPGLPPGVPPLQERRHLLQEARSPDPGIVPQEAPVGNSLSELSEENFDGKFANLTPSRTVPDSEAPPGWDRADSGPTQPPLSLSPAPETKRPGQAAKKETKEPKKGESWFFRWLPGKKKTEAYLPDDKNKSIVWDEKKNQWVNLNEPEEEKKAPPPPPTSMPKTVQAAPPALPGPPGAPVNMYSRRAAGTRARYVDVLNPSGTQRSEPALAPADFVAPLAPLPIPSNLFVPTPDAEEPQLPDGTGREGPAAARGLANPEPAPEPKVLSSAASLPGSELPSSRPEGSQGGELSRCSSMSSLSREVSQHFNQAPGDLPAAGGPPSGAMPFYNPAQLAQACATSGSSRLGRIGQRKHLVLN
UniProt Q9Y512: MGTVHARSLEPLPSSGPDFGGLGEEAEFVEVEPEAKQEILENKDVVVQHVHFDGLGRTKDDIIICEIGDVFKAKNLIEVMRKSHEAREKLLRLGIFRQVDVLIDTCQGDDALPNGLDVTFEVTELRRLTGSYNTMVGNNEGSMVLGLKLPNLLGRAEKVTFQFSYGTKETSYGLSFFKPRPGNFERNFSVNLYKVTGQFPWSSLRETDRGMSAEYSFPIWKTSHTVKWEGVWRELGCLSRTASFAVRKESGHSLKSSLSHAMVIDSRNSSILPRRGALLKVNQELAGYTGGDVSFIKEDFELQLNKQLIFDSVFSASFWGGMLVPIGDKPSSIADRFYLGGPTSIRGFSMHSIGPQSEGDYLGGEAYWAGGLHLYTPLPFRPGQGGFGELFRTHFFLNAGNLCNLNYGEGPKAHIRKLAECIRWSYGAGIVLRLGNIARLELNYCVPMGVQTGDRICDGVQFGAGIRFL
UniProt Q15019: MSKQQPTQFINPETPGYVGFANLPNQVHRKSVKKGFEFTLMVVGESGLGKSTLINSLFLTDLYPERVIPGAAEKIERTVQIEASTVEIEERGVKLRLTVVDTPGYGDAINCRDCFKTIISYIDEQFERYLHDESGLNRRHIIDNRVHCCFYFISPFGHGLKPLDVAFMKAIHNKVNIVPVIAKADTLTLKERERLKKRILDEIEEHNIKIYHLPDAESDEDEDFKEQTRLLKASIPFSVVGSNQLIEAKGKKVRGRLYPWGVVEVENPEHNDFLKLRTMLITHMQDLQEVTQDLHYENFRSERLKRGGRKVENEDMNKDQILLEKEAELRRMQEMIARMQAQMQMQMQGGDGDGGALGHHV
UniProt P22307: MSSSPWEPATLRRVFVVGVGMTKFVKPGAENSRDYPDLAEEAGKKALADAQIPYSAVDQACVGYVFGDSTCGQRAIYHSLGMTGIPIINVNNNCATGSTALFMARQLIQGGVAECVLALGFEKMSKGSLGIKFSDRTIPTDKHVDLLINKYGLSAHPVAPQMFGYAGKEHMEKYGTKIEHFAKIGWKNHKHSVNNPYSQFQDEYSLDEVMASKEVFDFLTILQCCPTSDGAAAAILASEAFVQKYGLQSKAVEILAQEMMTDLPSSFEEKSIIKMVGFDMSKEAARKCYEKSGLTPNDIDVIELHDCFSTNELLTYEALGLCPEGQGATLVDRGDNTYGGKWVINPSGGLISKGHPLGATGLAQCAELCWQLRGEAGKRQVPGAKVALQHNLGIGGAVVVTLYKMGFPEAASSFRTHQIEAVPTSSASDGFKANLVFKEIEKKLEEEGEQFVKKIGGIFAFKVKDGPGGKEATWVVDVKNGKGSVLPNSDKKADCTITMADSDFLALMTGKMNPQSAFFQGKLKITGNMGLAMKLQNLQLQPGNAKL
UniProt Q9UH03, whole entry, looked up: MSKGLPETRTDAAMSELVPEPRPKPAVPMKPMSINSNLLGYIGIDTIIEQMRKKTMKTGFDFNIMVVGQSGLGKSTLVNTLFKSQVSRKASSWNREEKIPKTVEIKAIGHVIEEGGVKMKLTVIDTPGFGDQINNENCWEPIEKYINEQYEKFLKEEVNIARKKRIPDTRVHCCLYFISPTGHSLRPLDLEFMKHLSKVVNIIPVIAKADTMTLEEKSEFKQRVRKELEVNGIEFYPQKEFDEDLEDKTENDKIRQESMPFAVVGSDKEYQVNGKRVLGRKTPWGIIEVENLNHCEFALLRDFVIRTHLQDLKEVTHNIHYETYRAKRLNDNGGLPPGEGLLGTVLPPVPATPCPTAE
UniProt Q15437: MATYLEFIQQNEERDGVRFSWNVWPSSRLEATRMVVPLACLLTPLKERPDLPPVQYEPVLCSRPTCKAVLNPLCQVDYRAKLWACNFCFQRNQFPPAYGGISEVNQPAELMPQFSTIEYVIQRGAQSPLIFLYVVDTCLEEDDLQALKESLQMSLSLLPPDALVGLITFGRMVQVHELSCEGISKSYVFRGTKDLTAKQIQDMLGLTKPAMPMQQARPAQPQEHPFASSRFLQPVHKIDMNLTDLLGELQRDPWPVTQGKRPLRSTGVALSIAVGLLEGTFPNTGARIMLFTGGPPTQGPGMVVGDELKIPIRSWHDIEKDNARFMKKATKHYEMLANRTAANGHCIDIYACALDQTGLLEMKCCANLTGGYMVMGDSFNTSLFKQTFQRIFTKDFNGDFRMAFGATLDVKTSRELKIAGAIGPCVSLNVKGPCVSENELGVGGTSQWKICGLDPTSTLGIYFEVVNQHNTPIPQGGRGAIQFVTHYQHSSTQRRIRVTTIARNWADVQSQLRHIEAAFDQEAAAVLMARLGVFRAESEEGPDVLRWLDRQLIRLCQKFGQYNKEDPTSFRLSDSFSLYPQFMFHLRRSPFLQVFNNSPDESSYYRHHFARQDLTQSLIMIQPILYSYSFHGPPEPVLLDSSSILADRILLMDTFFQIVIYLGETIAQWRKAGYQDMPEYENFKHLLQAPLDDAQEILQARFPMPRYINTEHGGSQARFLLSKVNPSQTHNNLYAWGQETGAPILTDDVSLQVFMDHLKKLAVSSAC
UniProt Q01826: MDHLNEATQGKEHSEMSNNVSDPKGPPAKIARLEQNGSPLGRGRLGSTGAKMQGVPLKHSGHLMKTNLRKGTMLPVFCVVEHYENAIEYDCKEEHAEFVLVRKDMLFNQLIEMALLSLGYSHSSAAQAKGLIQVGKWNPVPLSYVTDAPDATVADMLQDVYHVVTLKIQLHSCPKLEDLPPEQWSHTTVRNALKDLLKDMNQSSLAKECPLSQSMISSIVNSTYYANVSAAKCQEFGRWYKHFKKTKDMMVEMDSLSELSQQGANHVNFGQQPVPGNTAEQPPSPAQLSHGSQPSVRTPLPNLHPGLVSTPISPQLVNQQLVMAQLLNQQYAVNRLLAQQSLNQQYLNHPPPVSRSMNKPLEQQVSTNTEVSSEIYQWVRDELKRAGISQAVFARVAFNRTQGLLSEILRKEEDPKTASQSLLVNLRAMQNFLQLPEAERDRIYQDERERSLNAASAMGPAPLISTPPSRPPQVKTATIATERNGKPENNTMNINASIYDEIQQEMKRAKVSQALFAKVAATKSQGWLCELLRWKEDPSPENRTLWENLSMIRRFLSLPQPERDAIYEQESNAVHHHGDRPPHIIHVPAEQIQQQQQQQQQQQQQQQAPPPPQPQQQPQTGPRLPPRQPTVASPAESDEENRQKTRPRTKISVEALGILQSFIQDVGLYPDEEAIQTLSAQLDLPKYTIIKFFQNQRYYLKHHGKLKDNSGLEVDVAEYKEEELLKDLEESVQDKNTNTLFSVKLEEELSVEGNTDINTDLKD
UniProt Q9UQR0: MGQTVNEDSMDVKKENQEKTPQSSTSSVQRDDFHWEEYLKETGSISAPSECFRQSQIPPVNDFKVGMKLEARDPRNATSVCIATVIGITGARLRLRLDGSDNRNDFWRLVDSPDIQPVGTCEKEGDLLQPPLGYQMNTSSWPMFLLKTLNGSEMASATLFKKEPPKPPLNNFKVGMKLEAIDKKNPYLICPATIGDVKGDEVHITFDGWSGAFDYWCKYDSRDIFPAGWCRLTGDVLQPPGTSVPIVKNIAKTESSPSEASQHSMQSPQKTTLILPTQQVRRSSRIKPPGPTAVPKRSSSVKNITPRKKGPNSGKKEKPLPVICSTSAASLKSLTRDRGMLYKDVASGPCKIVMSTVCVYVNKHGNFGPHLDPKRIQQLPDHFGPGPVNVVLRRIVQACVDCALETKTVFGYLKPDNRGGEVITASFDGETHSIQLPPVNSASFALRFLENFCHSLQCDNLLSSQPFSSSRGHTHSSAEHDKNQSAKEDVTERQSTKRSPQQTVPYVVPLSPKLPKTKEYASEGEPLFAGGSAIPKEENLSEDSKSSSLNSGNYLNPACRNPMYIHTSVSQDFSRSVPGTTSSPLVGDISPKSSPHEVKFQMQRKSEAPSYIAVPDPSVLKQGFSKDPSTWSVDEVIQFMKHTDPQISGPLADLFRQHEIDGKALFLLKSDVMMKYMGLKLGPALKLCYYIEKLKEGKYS
UniProt Q9Y3A5: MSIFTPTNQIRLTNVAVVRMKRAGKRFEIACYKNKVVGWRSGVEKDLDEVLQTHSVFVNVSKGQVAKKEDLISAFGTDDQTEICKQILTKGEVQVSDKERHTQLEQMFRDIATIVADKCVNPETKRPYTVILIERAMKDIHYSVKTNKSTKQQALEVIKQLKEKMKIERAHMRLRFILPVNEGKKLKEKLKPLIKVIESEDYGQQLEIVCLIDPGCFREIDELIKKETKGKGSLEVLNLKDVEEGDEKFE

Compound: Cc1cc(ccc1-c1ccccc1)C(=O)N1CCCN(CC1)C(=O)CCl [compound 10]
Assay: probe-labelled cysteine peptide fold change vs DMSO (competition) (log2 fold change); higher = less target engagement (more negative = stronger competition)
Details: THP-1, incubation time: 4 h
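Note: competitive profiling in live THP-1 cells: cysteine peptides tagged with an iodoacetamide desthiobiotin (IA-DTB) probe, intensity after compound treatment relative to DMSO-treated cells.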

| Target | probe-labelled cysteine peptide fold change (10 µM) | probe-labelled cysteine peptide fold change (50 µM) |
| --- | --- | --- |
| SEC16A_O15027_1293_YWCDAEYDAYRR (UniProt O15027) | -0.239 | -0.523 |
| SAMM50_Q9Y512_457_ICDGVQFGAGIR (UniProt Q9Y512) | 0.0539 | -0.404 |
| SEPT2_Q15019_149_VHCCFYFISPFGHGLKPLDVAFMK (UniProt Q15019) | -0.126 | 0.222 |
| SCP2_P22307_365_GHPLGATGLAQCAELCWQLR (UniProt P22307) | -1.02 | -0.686 |
| SEC24D_O94855_390_YQCGFCNCVNDVPPFYFQHLDHIGR (UniProt O94855) | 0.533 | 0.699 |
| SEPT3_Q9UH03_295_TPWGIIEVENLNHCEFALLR (UniProt Q9UH03) | -0.263 | 0.122 |
| SEL1L3_Q68CR1_475_QEACHLHNSYLDLQR (UniProt Q68CR1) | 0.18 | 0.0464 |
| SATB2_Q9UPW6_246_VERENLSDYCVLGQR (UniProt Q9UPW6) | 0.127 | -0.158 |
| SEC23B_Q15437_180_MVQVHELSCEGISK (UniProt Q15437) | 0.0112 | 0.141 |
| SDF2L1_Q9HCN8_149_CSGQHWER (UniProt Q9HCN8) | -0.0611 | 0.0671 |
| SATB1_Q01826_529_SQGWLCELLR (UniProt Q01826) | -0.0884 | -0.874 |
| SCLT1_Q96NL6_408_LTEELSALQMECAEK (UniProt Q96NL6) | 0.0149 | 0.0266 |
| SDCCAG8_Q86SQ7_361_ALIQCDQLR (UniProt Q86SQ7) | 0.155 | 0.038 |
| SDHA_P31040_266_TYFSCTSAHTSTGDGTAMITR (UniProt P31040) | 0.135 | -0.103 |
| SART3_Q15020_341_ALVENCLVPDLWIR (UniProt Q15020) | 0.0881 | 0.145 |
| SART3_Q15020_780_PMFVSPCVDK (UniProt Q15020) | -0.00442 | -0.0279 |
| SCAF8_Q9UPN6_1170_DDRDFDFCR (UniProt Q9UPN6) | -0.189 | -0.581 |
| SCML2_Q9UQR0_458_FLENFCHSLQCDNLLSSQPFSSSR (UniProt Q9UQR0) | 0.00126 | -0.195 |
| SC5D_O75845_285_SSHSGNGCK (UniProt O75845) | -0.173 | -0.559 |
| SENP6_Q9GZR1_972_QPCILLMDSLR (UniProt Q9GZR1) | -0.104 | -0.0157 |

Single records, as listed above. Order of values: probe-labelled cysteine peptide fold change (10 µM)	probe-labelled cysteine peptide fold change (50 µM)
SEPT3_Q9UH03_295_TPWGIIEVENLNHCEFALLR (UniProt Q9UH03) as listed: -0.263	0.122
SCP2_P22307_365_GHPLGATGLAQCAELCWQLR (UniProt P22307) as listed: -1.02	-0.686
SAMM50_Q9Y512_457_ICDGVQFGAGIR (UniProt Q9Y512) as listed: 0.0539	-0.404

(cont.)

| Target | probe-labelled cysteine peptide fold change (10 µM) | probe-labelled cysteine peptide fold change (50 µM) |
| --- | --- | --- |
| SCARB2_Q14108_274_DEVLYVFPSDFCR (UniProt Q14108) | 0.152 | 0.161 |
| SEPT2_Q15019_148+149_VHCCFYFISPFGHGLKPLDVAFMK (UniProt Q15019) | -0.294 | -0.329 |
| SBDS_Q9Y3A5_84_EDLISAFGTDDQTEICK (UniProt Q9Y3A5) | 0.103 | 0.224 |
| SEC24D_O94855_1028_EICQLLN (UniProt O94855) | -0.0209 | 0.102 |
| SEC31A_O94979_279_GILAIAWSMADPELLLSCGK (UniProt O94979) | -0.305 | -0.4 |
| SEC23B_Q15437_61+66_ERPDLPPVQYEPVLCSRPTCK (UniProt Q15437) | -0.112 | -0.579 |
| SEC16A_O15027_107_DSSQGPCEPLPGPLTQPR (UniProt O15027) | -0.262 | -0.217 |
| SATB1_Q01826_91_GTMLPVFCVVEHYENAIEYDCK (UniProt Q01826) | 0.316 | 0.467 |
| SCFD2_Q8WU76_236_EECFAVGSLSQVIAADLANYAPAK (UniProt Q8WU76) | -0.116 | 0.159 |
| SCAF11_Q99590_450_SCNEQIEESEK (UniProt Q99590) | -0.364 | -0.315 |
| SEPSECS_Q9HD40_262_CMHLIQQGAR (UniProt Q9HD40) | -0.072 | -0.0413 |
| SAR1B_Q9Y6B6_178_ELNARPLEVFMCSVLKR (UniProt Q9Y6B6) | -0.195 | -0.622 |
| SCIN_Q9Y6U3_619_LYGCSNK (UniProt Q9Y6U3) | -0.185 | -0.0102 |
| SEC24D_O94855_431_RLDHYEKPELSLGSYEYVATLDYCR (UniProt O94855) | -0.00433 | -0.0677 |
| SEC23B_Q15437_352_TAANGHCIDIYACALDQTGLLEMK (UniProt Q15437) | 0.181 | -0.0342 |
| SCRN3_Q0VDG4_406_IVNLFPQCTK (UniProt Q0VDG4) | -0.0454 | -0.0632 |
| SCML2_Q9UQR0_559_SSSLNSGNYLNPACR (UniProt Q9UQR0) | -0.163 | -0.649 |
| SEC63_Q9UGP8_490_EQSICAAEEQPAEDGQGETNK (UniProt Q9UGP8) | -0.2 | 0.025 |
| SCAPER_Q9BY12_336_DSLHSCDHPLAEK (UniProt Q9BY12) | -0.263 | -0.404 |
| SCCPDH_Q8NBX0_98_QATVVLNCVGPYR (UniProt Q8NBX0) | 0.294 | 0.238 |
